Several values for one entry are separate records, joined by “and”; a condition that tells them apart may be missing. Equal values may be shown once. Where a name gives a salt, the structure may show the parent alone. The source gives many values for each of these; only a part stands here.
Assay: Ocular tissue concentrations (aqueous humor, vitreous humor, iris, retina, choroid, cornea) after topical ocular, subcutaneous and intravitreal administration
Type: in vivo, New Zealand White rabbits
Settings: for vitreous humor Conc., individual eyes (OD, OS): Group 1 topical ocular 1.2 mg/eye; for Choroid homogenate Conc., individual eyes (OD, OS) / Choroid tissue Conc., individual eyes (OD, OS) / Cornea homogenate Conc., individual eyes (OD, OS) / Cornea tissue Conc., individual eyes (OD, OS) / Iris homogenate Conc., individual eyes (OD, OS) / Iris tissue Conc., individual eyes (OD, OS) / Retina homogenate Conc., individual eyes (OD, OS) / Retina tissue Conc., individual eyes (OD, OS): topical ocular 1.2 mg/eye (~0.7 mg/kg/dose)
Description: To measure the concentration of Compound 1 in plasma and ocular tissues following topical ocular, subcutaneous, and intravitreal administration, New Zealand White rabbits were administered Compound 1, and plasma and ocular samples were collected at pre-determined time points. Compound 1 formulations were prepared fresh on each day of dosing.
Ocular tissue samples from both eyes of each animal were collected and weights were recorded. Plasma and ocular tissue sample concentrations of Compound 1 were determined by LC-MS/MS.
New Zealand White rabbits weighing 2.5 to 3.5 kg were used on this study. Rabbits were housed one per cage. Animals were not fasted and only healthy animals with no ocular illness were used. Two rabbits per group were sacrificed at each of four ocular tissue sampling time points for a total of eight rabbits per group.
Animals were anesthetized for ocular (topical) and intravitreal dosing following the 12IA7 IACUC protocol. Each rabbit received a bolus dose of test formulation either via topical ocular administration 3 times daily on Days 1 and 2 (at 0, 6, and 12 hours), and once on Day 3 (at 0 hours) into both eyes; via intravitreal administration into both eyes once on Day 1 (at 0 hours); or via subcutaneous administration 2 times daily on Days 1 and 2 (at 0 and 8 hours) and once daily on Day 3 (at 0 hours). Doses were given within an approximately 1 hour window each day where applicable.
On Day 1, for intravitreal administration, or on Day 3, for topical ocular and subcutaneous administration, at the appropriate ocular tissue collection time points, animals were euthanized and both eyes were enucleated immediately. Following enucleation, each eye was rinsed with phosphate-buffered saline. Ocular tissue samples from both eyes of each animal were collected at predetermined time points and weights were recorded. All the samples were frozen immediately on dry ice, and stored at −60° C. to −80° C. pending bioanalysis.
An LC-MS/MS method was developed for the determination of Compound 1 in rabbit aqueous tissues (plasma, aqueous and vitreous humor) and solid ocular tissue samples. A pre-study standard curve was analyzed to determine the specificity, range, and lower limit of quantitation of the method. Plasma and tissue homogenate study samples were extracted and analyzed. All the samples were treated identically to the standards.
One eight-point standard curve was used in each analytical batch. To be accepted, each batch must have had at least five of eight standards with accuracy within ±20% of nominal, except at the lower limit of quantification (LLOQ), where ±25% was acceptable.
Concentration versus time data is plotted in FIGS. 3-16. All data are expressed as ng/g of the free drug. Samples that were below the limit of quantitation (0.2 ng/mL) were not used in the calculation of averages.

- vitreous humor Conc., individual eyes (OD, OS) (0.5 hr): 0.549 ng/mL and 0.507 ng/mL
- Cornea tissue Conc., individual eyes (OD, OS) (0.5 hr): 240 ng/g and 370 ng/g
- Iris homogenate Conc., individual eyes (OD, OS) (0.5 hr): 1.62 ng/mL and 1.7 ng/mL and 2.95 ng/mL
- Iris tissue Conc., individual eyes (OD, OS) (0.5 hr): 28.1 ng/g and 32.5 ng/g and 18.7 ng/g
- Choroid tissue Conc., individual eyes (OD, OS) (4 hr): 81.1 ng/g and 27.8 ng/g and 52.1 ng/g
- Iris tissue Conc., individual eyes (OD, OS) (4 hr): 32.7 ng/g and 27.9 ng/g
- Retina tissue Conc., individual eyes (OD, OS) (4 hr): 64.8 ng/g and 17.6 ng/g and 109 ng/g
SMILES: COC(=O)N[C@@H](Cc1ccccc1)C(=O)N[C@@H](Cc1ccc(NS(=O)(=O)O)cc1)c1csc(-c2cccs2)n1 [Compound 1 sodium salt]
- vitreous humor Conc., individual eyes (OD, OS) (1.0 hr): 1.97 ng/mL and 0.282 ng/mL and 3.28 ng/mL and 2.83 ng/mL
- Choroid homogenate Conc., individual eyes (OD, OS) (0.5 hr): 2.75 ng/mL and 1.47 ng/mL and 5.55 ng/mL and 11.2 ng/mL
- Choroid tissue Conc., individual eyes (OD, OS) (0.5 hr): 16.2 ng/g and 30.3 ng/g and 123 ng/g and 61.1 ng/g
- Cornea homogenate Conc., individual eyes (OD, OS) (0.5 hr): 21.8 ng/mL and 38.8 ng/mL and 33.6 ng/mL and 275 ng/mL
- Retina homogenate Conc., individual eyes (OD, OS) (0.5 hr): 0.695 ng/mL and 3.06 ng/mL and 2.54 ng/mL and 3.01 ng/mL
- Retina tissue Conc., individual eyes (OD, OS) (0.5 hr): 33.7 ng/g and 7.65 ng/g and 33.1 ng/g and 27.9 ng/g
- Choroid homogenate Conc., individual eyes (OD, OS) (1 hr): 5.56 ng/mL and 1.50 ng/mL and 2.89 ng/mL and 1.77 ng/mL
- Choroid tissue Conc., individual eyes (OD, OS) (1 hr): 16.5 ng/g and 61.2 ng/g and 19.5 ng/g and 31.8 ng/g
- Cornea homogenate Conc., individual eyes (OD, OS) (1 hr): 87.2 ng/mL and 43.8 ng/mL and 19.9 ng/mL and 48.4 ng/mL
- Cornea tissue Conc., individual eyes (OD, OS) (1 hr): 482 ng/g and 959 ng/g and 532 ng/g and 219 ng/g
- Iris homogenate Conc., individual eyes (OD, OS) (1 hr): 1.57 ng/mL and 2.70 ng/mL and 5.69 ng/mL and 10.1 ng/mL
- Iris tissue Conc., individual eyes (OD, OS) (1 hr): 29.7 ng/g and 17.3 ng/g and 111 ng/g and 62.6 ng/g
- Retina homogenate Conc., individual eyes (OD, OS) (1 hr): 6.99 ng/mL and 2.01 ng/mL and 7.81 ng/mL and 4.70 ng/mL
- Retina tissue Conc., individual eyes (OD, OS) (1 hr): 22.1 ng/g and 76.9 ng/g and 51.7 ng/g and 85.9 ng/g
- Choroid homogenate Conc., individual eyes (OD, OS) (2 hr): 1.19 ng/mL and 3.99 ng/mL and 10.5 ng/mL and 5.86 ng/mL
- Choroid tissue Conc., individual eyes (OD, OS) (2 hr): 43.9 ng/g and 13.1 ng/g and 64.5 ng/g and 116 ng/g
- Cornea homogenate Conc., individual eyes (OD, OS) (2 hr): 20.9 ng/mL and 25.4 ng/mL and 87.8 ng/mL and 256 ng/mL
- Cornea tissue Conc., individual eyes (OD, OS) (2 hr): 279 ng/g and 230 ng/g and 2816 ng/g and 966 ng/g
- Iris homogenate Conc., individual eyes (OD, OS) (2 hr): 1.12 ng/mL and 2.99 ng/mL and 5.40 ng/mL and 9.38 ng/mL
- Iris tissue Conc., individual eyes (OD, OS) (2 hr): 32.9 ng/g and 12.3 ng/g and 103 ng/g and 59.4 ng/g
- Retina homogenate Conc., individual eyes (OD, OS) (2 hr): 1.56 ng/mL and 8.93 ng/mL and 4.54 ng/mL and 2.54 ng/mL
- Retina tissue Conc., individual eyes (OD, OS) (2 hr): 98.2 ng/g and 17.2 ng/g and 27.9 ng/g and 49.9 ng/g
- Choroid homogenate Conc., individual eyes (OD, OS) (4 hr): 2.53 ng/mL and 7.37 ng/mL and 4.74 ng/mL and 45.4 ng/mL
- Cornea homogenate Conc., individual eyes (OD, OS) (4 hr): 44.8 ng/mL and 37.0 ng/mL and 32.9 ng/mL and 79.4 ng/mL
- Cornea tissue Conc., individual eyes (OD, OS) (4 hr): 407 ng/g and 493 ng/g and 873 ng/g and 362 ng/g
- Iris homogenate Conc., individual eyes (OD, OS) (4 hr): 2.97 ng/mL and 2.79 ng/mL and 2.54 ng/mL and 86.7 ng/mL
- Retina homogenate Conc., individual eyes (OD, OS) (4 hr): 1.60 ng/mL and 5.89 ng/mL and 9.88 ng/mL and 130 ng/mL

Reference: patent US11666558B2, “Methods of treating intraocular pressure with activators of Tie-2” (EyePoint Pharmaceuticals, Inc., priority 2015, dated 2023)
